Measured values taken from patent US20220259296A1.
These are yes or no findings as the source states them, for the method shown. Some results given as binding are weak or reduced against the parent protein; the word gives no strength.

Sequences of proteins named here, by UniProt entry; tags and fusion partners are left off. Residues count along the entry.
UniProt P01024, residues 23-1663: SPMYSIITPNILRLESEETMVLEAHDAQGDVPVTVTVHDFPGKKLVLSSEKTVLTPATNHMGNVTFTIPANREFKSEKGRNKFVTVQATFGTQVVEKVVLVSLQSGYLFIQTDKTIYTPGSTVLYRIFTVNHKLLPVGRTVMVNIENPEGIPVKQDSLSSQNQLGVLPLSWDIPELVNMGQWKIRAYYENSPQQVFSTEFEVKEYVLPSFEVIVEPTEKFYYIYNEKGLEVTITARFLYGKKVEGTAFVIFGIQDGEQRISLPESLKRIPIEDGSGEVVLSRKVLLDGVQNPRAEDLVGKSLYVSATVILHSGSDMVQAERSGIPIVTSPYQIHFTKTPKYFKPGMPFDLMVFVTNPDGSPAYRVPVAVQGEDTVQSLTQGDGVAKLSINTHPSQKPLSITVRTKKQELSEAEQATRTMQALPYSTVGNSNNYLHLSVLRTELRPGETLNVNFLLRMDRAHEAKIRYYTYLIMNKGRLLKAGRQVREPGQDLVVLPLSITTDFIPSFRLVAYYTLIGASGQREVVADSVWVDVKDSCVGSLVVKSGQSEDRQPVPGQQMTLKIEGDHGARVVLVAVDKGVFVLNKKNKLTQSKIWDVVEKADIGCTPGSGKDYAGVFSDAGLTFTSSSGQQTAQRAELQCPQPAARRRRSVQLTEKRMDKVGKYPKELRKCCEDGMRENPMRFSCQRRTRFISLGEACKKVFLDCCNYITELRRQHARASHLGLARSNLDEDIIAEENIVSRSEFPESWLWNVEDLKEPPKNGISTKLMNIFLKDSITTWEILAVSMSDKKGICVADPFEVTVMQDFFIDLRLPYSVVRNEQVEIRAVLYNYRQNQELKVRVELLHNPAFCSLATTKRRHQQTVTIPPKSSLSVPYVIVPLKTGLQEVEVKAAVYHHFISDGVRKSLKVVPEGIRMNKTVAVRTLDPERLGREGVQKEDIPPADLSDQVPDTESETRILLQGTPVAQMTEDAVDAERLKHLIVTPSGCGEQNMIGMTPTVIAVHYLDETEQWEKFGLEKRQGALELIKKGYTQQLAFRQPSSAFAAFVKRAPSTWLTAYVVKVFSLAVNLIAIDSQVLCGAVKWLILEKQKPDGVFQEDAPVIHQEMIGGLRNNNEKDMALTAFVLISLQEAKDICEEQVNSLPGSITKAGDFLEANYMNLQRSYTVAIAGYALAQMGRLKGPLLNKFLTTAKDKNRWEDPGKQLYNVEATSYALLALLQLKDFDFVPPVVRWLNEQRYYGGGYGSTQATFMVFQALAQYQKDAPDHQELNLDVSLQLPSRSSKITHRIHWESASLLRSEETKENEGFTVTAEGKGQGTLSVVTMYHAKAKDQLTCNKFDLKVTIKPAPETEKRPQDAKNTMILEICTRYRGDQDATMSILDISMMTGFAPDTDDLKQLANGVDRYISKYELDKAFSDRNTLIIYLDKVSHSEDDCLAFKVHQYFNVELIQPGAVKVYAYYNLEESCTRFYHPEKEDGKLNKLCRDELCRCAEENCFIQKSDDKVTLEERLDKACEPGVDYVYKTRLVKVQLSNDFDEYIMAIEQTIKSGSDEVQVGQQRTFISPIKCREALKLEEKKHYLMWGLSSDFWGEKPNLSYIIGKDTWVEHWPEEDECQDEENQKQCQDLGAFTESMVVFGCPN

How the values were obtained:
[1] = target: human complement C3 (human) (UniProt P01024); assay: direct binding ELISA, C3 coated
[2] = target: human complement C3 (human) (UniProt P01024); assay: competition ELISA on human C3; competitor: biotinylated M0123 (panel title 'Competition with M0123')
[3] = target: human complement C3 (human) (UniProt P01024); assay: competition ELISA on human C3; competitor: biotinylated M0251 (panel title 'Competition with M0251')
[4] = target: human complement C3 (human) (UniProt P01024); assay: direct ELISA, plate coated with purified native human C3
[5] = target: human complement C3 (human) (UniProt P01024); assay: direct binding ELISA, purified native human C3 coated
[6] = target: human complement C3 (human) (UniProt P01024); assay: biolayer interferometry
[7] = target: human complement C3 (human) (UniProt P01024); assay: C3 binding ELISA with biotinylated antibody and competitor antibodies
[8] = target: human complement C3 (human) (UniProt P01024); assay: competition ELISA on human C3; competitor: biotinylated M0122 (panel title 'Competition with M0122')
[9] = target: human complement C3 (human) (UniProt P01024); assay: competition ELISA on human C3; competitor: biotinylated M0124 (panel title 'Competition with M0124')

Measured: binding

B1: M0228 (VHH)
VHH: EVQLVESGGGLVQAGGSLRLSCAASGRTINDYTMGWFRQAPGKDREFVSAINWRGSSTYYADSVKGRFTISRDNAKKTIYLQMNLLKPEDTAVYYCARQVSPYVELTATAAYWGQGTQVTVSS
binds: [1] | [2] | [3] | [4] | [5] | [6] | [7]

B2: M0122 (antibody, V domains shown)
VH: QSVKESGGRLVTPGTPLTLTCTVSGFSLYNYAMNWVRQAPGKGLEWIGIINTDGNTNYASWAKGRFTISTTSSTTVDLKITSPTTEDTATYFCPRAVGYHHHALDPWGPGTLVTVSS
VL: ELVLTQSPSVSAALGASAKLTCTLSSAHKTYTIDWYQQQQGEAPRYLMQLKSDGSYTKGTGVPDRFSGSSSGADRYLIIPSVQADDEADYYCGTDYGGGYVFGGGTQLTVTG
binds: [1] | [4] | [5] | [6] | [8]

B3: M0123 (antibody, V domains shown)
VH: QSVKESEGRLVTPGTPLTLTCTASGFTIGSYHMSWVRQAPGKGLEWIGIIYTDGNTDYANWAKGRFTISKTSTTMDLKMTSLTAADTATYFCARRGYADYGYTFNLWGQGTLVTISS
VL: ELVLTQPASVQVNLGQTVSLTCTADTLSRNYASWYQQKPGQAPVLLIYRDTSRPSGVPDRFSGSSSGNTATLTISGAQAGDEADYYCATGDGSGSSYQFVFGGGTQLTVTG
binds: [2] | [7]

B4: M0251 (VHH)
VHH: EVQLVESGGGLVQAGGSLRLSCVASGHTFGNWAMGWFRQAPGKEREFVGAIRWSVGTTNYRDSVKGRFAISRDNARNTVYLQMNRLKPEDTAVYYCAAGTPFVLARINGYDYWGQGTQVTVSS
binds: [2] | [3] | [7]

B5: M0124 (antibody, V domains shown)
VH: QSVKESGGRLVTPGTPLTLTCTVSGIDLSRYWMNWVRQAPGKGLEWIGYITTNDKTYYANWAKGRYTISKTSSTTVDLKMTSLTTEDTATYFCARRSSGAYDIWGPGTLVTISS
VL: QPVLTQSPSASATLGASAKLTCTLSSAHKTYYIEWYQQQQGEAPRYLMQLKSDGTYTKGTGVPDRFSGSSSGADRYLIISSVQAEDEADYICGVTGGNVYVFGGGTQLTVTG
binds: [1] | [9] | [4] | [5] | [6]
